Earlier results in patent publication US20220339103A1, “Lung-targeted corticosteroid treatment in viral respiratory disease, COVID-19 and ARDS (acute respiratory distress syndrome)” (Bodor Laboratories, Inc., priority 2021, published 2022).

tested on: cotton pellet granuloma; settings: ratio of relative potencies, cotton pellet granuloma test

| SMILES | TI, therapeutic index |
| --- | --- |
| CCCC(=O)O[C@]1(C(=O)CO)CC[C@H]2[C@@H]3CCC4=CC(=O)CC[C@]4(C)[C@H]3[C@@H](O)C[C@@]21C [Hydrocortisone 17α-butyrate (HB) (0.1%), Hydrocortisone 17α-butyrate] | 1.3 |
| CCOC(=O)O[C@]1(C(=O)OCCl)CC[C@H]2[C@@H]3CCC4=CC(=O)C=C[C@]4(C)[C@H]3[C@@H](O)C[C@@]21C [Loteprednol Etabonate, chloromethyl 17α-ethoxycarbonyloxy-11β-hydroxyandrosta-1,4-dien-3-one-17β-carboxylate] | 24.0 |
| CCCCC(=O)O[C@]1(C(=O)CO)[C@@H](C)C[C@H]2[C@@H]3CCC4=CC(=O)C=C[C@]4(C)[C@@]3(F)[C@@H](O)C[C@@]21C [Betamethasone 17α-valerate (BV) (0.12%), Betamethasone 17α-valerate] | 1.0 |
| CCC(=O)O[C@]1(C(=O)CCl)[C@@H](C)C[C@H]2[C@@H]3CCC4=CC(=O)C=C[C@]4(C)[C@@]3(F)C(=O)C[C@@]21C [Clobetasone-17α-propi onate (KP) (0.1%), Clobetasone-17α-propi onate] | 1.5 |

tested on: airway eosinophilia / thymus weight; settings: intrapulmonal; dose reducing thymus weight / dose causing about 50-60% inhibition of airway eosinophilia, Brown Norway rats

| SMILES | Ratios between the lowest side-effect-inducing dose and a moderately effective therapeutic dose |
| --- | --- |
| CCOC(=O)O[C@]1(C(=O)OCCl)CC[C@H]2[C@@H]3CCC4=CC(=O)C=C[C@]4(C)[C@H]3[C@@H](O)C[C@@]21C [Loteprednol Etabonate, chloromethyl 17α-ethoxycarbonyloxy-11β-hydroxyandrosta-1,4-dien-3-one-17β-carboxylate] | 40 |
| CCC(=O)OCC(=O)[C@@]1(OC(=O)CC)[C@@H](C)C[C@H]2[C@@H]3CCC4=CC(=O)C=C[C@]4(C)[C@@]3(Cl)[C@@H](O)C[C@@]21C [Beclomethasone Dipropionate] | 0.3 |
